Among the data in patent publication US11737973B2, “Microneedle percutaneous patch containing donepezil” (RAPHAS CO., LTD., priority 2017, dated 2023) are AUC and Cmax values, retold here.

Counter-ions that a name gives are not always drawn.

The nature of this data set: Donepezil PK profile of microneedle patch. Conditions: rat, in vivo, po; male SD rats, serum, LC/MS/MS.

`COc1cc2c(cc1OC)C(=O)C(CC1CCN(Cc3ccccc3)CC1)C2` (centres unmarked) [donepezil hydrochloride] returned an AUC of 815 ± 163 ng·h/mL and a peak concentration (Cmax) of 90.9 ± 27.9 ng/mL.
